For the test, the target named is T1, FLAG-tagged Xrn1 (wild type) (S. cerevisiae, UniProt P22147 1-1528).
T1 construct: 5' to 3' exonuclease Xrn1 (alias Kem1) of S. cerevisiae, called full-length Xrn1 for the FLAG-tagged purified protein; also called Xrn1-FLAG; Xrn1^WT; source: genomically FLAG-tagged strain, in lysate, for the IP with mass spectrometry
As to the kind of experiment: affinity purification with mass spectrometry; lysate of strains with genomically FLAG-tagged WT or ΔNLS1/2 Xrn1 and a no-tag control; anti-FLAG Sepharose, elution with 3x FLAG peptide, in-gel digestion, mass spectrometry.

By UniProt entry, the sequences of proteins in these tests, tags left out.
UniProt P22147: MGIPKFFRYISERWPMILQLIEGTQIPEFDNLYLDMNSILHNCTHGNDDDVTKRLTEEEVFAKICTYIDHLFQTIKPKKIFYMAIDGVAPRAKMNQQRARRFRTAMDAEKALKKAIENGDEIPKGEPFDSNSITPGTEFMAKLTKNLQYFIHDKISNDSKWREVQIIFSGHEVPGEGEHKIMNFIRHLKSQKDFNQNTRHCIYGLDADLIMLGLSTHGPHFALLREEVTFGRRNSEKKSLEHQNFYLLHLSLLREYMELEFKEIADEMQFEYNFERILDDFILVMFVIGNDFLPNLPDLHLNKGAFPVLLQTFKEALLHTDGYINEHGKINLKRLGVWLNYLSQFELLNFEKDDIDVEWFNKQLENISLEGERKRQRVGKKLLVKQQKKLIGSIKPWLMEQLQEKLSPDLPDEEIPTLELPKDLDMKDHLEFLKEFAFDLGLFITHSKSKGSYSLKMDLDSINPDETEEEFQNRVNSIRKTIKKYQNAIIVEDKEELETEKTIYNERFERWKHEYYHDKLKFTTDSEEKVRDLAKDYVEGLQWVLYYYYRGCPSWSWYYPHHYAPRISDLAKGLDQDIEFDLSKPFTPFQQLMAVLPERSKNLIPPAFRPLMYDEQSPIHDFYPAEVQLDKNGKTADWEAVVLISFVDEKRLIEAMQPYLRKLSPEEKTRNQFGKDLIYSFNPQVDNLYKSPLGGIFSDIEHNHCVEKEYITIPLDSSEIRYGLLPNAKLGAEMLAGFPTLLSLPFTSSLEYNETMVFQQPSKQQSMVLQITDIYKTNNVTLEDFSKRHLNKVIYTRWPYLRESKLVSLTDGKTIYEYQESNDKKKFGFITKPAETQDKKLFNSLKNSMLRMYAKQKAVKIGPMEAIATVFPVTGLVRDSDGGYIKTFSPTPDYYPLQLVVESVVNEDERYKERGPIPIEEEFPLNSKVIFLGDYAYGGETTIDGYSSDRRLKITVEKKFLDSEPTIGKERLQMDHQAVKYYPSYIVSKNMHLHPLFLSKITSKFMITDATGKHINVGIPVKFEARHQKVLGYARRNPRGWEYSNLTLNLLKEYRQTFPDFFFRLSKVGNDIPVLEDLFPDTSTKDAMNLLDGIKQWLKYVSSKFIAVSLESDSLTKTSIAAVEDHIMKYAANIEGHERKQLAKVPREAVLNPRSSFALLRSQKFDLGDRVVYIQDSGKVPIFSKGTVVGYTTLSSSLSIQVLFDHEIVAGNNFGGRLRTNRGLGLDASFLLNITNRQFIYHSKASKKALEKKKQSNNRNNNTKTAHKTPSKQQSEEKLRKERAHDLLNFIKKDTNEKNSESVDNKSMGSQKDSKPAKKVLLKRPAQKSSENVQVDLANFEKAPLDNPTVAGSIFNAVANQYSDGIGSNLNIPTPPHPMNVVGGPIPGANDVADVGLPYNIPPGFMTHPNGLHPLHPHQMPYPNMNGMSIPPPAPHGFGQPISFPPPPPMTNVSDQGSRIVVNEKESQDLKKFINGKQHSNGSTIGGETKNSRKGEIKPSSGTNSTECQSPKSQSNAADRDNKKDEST

No constants are given. Whether binding was seen depends on the method and setting. In cells and extracts the contact can be indirect. These calls come from enrichment with a bait or labelling near it, and not all partners need be listed. Tags and fused reporters may be left off the sequences shown.

B1: Kap120 (endogenous, in the lysate of the Xrn1-FLAG strain) (protein, UniProt Q02932 1-1032)
chain: MASSLNELNLVQVLEQASNPQHIRSDVQKLAEQQLRQWETQAGFHYLLQSIYLNLSNSLQIRWLAVIQFKNGVDKYWRSTRINAIPKDEKASIRGRLFEMIDEQNNQLCIQNAQASARIARLDFPVEWPTLFEDLENLLNDEIIRKDSVKIYNILMHINQIVKVLGTARIGRCRPAMQSKVPLILPLIVRIYLQSFEEWTTSSNLNYEDLSSLQVSYLALKVLRRIICEGYDRPQTDQSVCDFIKLSVSHFEMLISNHENFKKFDIYEKFIKCLGKLYFNLVTGSPANFILLPCSTQILITYTRLIFDKAPKVYRENSDVTGDFWEQTAIRGLLILKRVINFIHKKGAITLKARSDKLTIDASINKINTEFLNENLITRLVDTLMEWYLRLRPTELENWFMDPEEWINEQMATSYEYQIRPCAENVFQDLMNTFSELLVPYLLKKIENDASKLSNSLDDFLRKDAIYASFQLSASAVSEMVDFDRLLIQVFLPEATNTNISGDELRIIRRRVALIINEWSTVKCSEESKSLCYKLFTNFLTDEDDKVVLLTTVQTVRTMVDDWNFNKDTFQPFLTENVHLLLRKILPSVSLTETRLYVLNTLSDIIIQTKPLISRDLLVEILQIIPNLWEIATNNASEAILANALLRLLRNLVSSLGSQSHLTWDIAIPVVALACDPSSMQYQLLSEDGYELWGMLLQNFSSHDQEFDDKFVELVPFLKYGIETHTEILPTLLEIIKSYALILNPVDFFSNNTFQDIFKQMSKYLLKLREDSFQLVLEIWEILILSNESDYENLLLQKFYETGVLSALFDAIFLEEAPSSYLCSQIIQIIARISYVNPDALMTFLATYHDNLPTSNENARMPESIRKIVSKDQTYDSVVNKLLTGWIVCFRDIFDPKFKKVHILGISSLLRTGLVPILTEFSSIASLWIEMLEEINETNRGDCEKYHLNDIVTEQSIAFHPLTAEQLRYHQLCKNNDPVHNISLKDFISQSMEYLESHLGVERYQEFLKTINPSLLENLQMFLSIQPQEARP
On to B1, for which the binding entry was “binds”.

The record behind these values is PMC9684461, “RNA-controlled nucleocytoplasmic shuttling of mRNA decay factors regulates mRNA synthesis and a novel mRNA decay pathway” (Nature Communications, 2021).
